Measurements from PubChem BioAssay AID540276 (National Center for Advancing Translational Sciences (NCATS), 2011).
In all, about 300,000 compounds went through this assay and about 5,400 (1.8%) were called active. Inconclusive results, whose numbers are uncertain, are shown with a selection of clear calls. Calls follow the shape of the full dose curve; tested in HEK293 cells. Where the call is inconclusive, the potency comes from a doubtful curve fit.

Assay: qHTS for inhibitors of binding or entry into cells for Marburg Virus
Details: Marburg virus pseudotyped entry inhibition, cell reporter; activity change, negative = inhibition: at 37.8 µM (top of the series) unless noted
% is scaled to controls: 0 for no effect and ±100 for the full control effect; potency is read from the fitted curve at half-maximal effect.

| SMILES | Potency | activity change, negative = inhibition |
| --- | --- | --- |
| CN1CCN(C(=O)C2CCC(CNS(=O)(=O)c3cccc4cccnc34)CC2)CC1 (configuration not stated) | inactive | – |
| Cc1cccc(C(=O)Nc2cc(S(=O)(=O)N3CCOCC3)ccc2N2CCCCC2)c1 | inconclusive: 5.62 µM [inhibitor, partial curve, poor fit] | – |
| Cc1cccc(N2CCN(S(=O)(=O)c3ccc4c(c3)OCCO4)CC2)c1C | inconclusive: 35.5 µM [inhibitor, single point] | – |
| CCOc1cc(C(=O)N/N=C/C(Br)=C/c2ccccc2)cc(OCC)c1OCC | inconclusive: 7.08 µM [inhibitor, partial curve, poor fit] | – |
| O=C(Cn1ccc([N+](=O)[O-])n1)N1CCCc2ccccc21 | inactive | – |
| CCN(c1ccccc1)S(=O)(=O)c1cccc(C(=O)NCC(c2ccc(F)cc2)N2CCOCC2)c1 (configuration not stated) | inconclusive: 12.6 µM [inhibitor, single point] | – |
| CC(C)c1nc(SCC(=O)Nc2nc3c(s2)CCCC3)c2ccccc2n1 | inconclusive: 2.06 µM [inhibitor, full curve, poor fit] | – |
| O=C(/C=C/c1cccc(Br)c1)NC1CCN(Cc2ccccc2)CC1 | inconclusive: 11.2 µM [inhibitor, partial curve] | – |
| Cc1cccnc1NC(=O)c1ccc(Br)o1 | inconclusive: 0.355 µM [activator, partial curve, poor fit] | – |
| O=C(NCc1nnc(SCC(=O)N2CCCc3ccccc32)n1-c1ccccc1)c1cccc2ccccc12 | inconclusive: 3.16 µM [inhibitor, full curve, poor fit] | – |
| CC(C)CC(=O)Nc1ccc(S(=O)(=O)N2CC3CC(C2)c2cccc(=O)n2C3)cc1 (configuration not stated) | inconclusive: 35.5 µM [activator, single point] | – |
| CCOc1ccc(OCCCC(=O)N2CCN(S(=O)(=O)c3ccccc3C#N)CC2)cc1 | inconclusive: 35.5 µM [inhibitor, single point] | – |
| O=C(CN(CCc1ccccc1)C(=O)CNS(=O)(=O)c1ccc(F)cc1)NCc1ccco1 | inconclusive: 11.2 µM [inhibitor, partial curve, poor fit] | – |
| CC(OC(=O)CCN=C1NS(=O)(=O)c2ccccc21)C(=O)Nc1ccccc1F (configuration not stated) | – | inconclusive: 3.35% [activator] |
| O=C(CCCCl)NC1=NN(c2ccccc2)C(=O)C1 | inconclusive: 35.5 µM [activator, single point] | – |
| CN(C)CCCN(C(=O)c1ccc(S(=O)(=O)N2CCc3ccccc32)cc1)c1nc2c(Cl)cccc2s1 | inconclusive: 28.2 µM [inhibitor, single point] | – |
| Fc1ccc(N2N=C(c3cccs3)CC2c2ccccc2)cc1 (configuration not stated) | inactive | – |
| CCOC(=O)NC1(Nc2cccc(Cl)c2)Oc2ccccc2O1 | inconclusive: 35.5 µM [inhibitor, single point] | – |
| O=C1c2ccccc2C(=O)N1CCc1c[nH]c2ccc(O)cc12 | inactive | – |
| O=C(COc1ccccc1F)Nc1ccc2nc(SCc3ccccc3)sc2c1 | inconclusive: 1.12 µM [inhibitor, full curve, poor fit] | – |
| COc1ccc(C(=O)C(CCCCC(CN(C)C)C(=O)c2ccc(OC)cc2)CN(C)C)cc1 (configuration not stated) | inconclusive: 3.98 µM [inhibitor, partial curve, poor fit] | – |
| COc1ccccc1NC(=O)Cc1c(F)cccc1Cl | inconclusive: 1.26 µM [activator, single point] | – |
| CCN1CCN(CC(=O)Nc2cc(S(=O)(=O)N(CC)c3ccccc3)ccc2Cl)CC1 | inconclusive: 10 µM [inhibitor, partial curve, poor fit] | – |

Shown as labelled records: entries from further up.
O=C(CCCCl)NC1=NN(c2ccccc2)C(=O)C1
  Potency: inconclusive: 35.5 µM [activator, single point]
CN(C)CCCN(C(=O)c1ccc(S(=O)(=O)N2CCc3ccccc32)cc1)c1nc2c(Cl)cccc2s1
  Potency: inconclusive: 28.2 µM [inhibitor, single point]
Fc1ccc(N2N=C(c3cccs3)CC2c2ccccc2)cc1 (configuration not stated)
  Potency: inactive

Later entries:

| SMILES | Potency | activity change, negative = inhibition |
| --- | --- | --- |
| O=C(CCc1ccccc1)NCC1(c2ccccc2)CCCC1 | active: 5.62 µM | – |
| Cc1sc2ncn(CC(=O)NCc3ccco3)c(=O)c2c1-c1ccccc1 | inconclusive: 0.891 µM [inhibitor, full curve, poor fit] | – |
| O=C(/C=C/c1ccc(OC(F)F)cc1)OCC(=O)N1CCN(C(=O)c2ccco2)CC1 | inactive | – |
| CCCCC(=O)N/N=C/c1c(O)n(Cc2ccc(F)cc2)c(=O)[nH]c1=O | inconclusive: 7.94 µM [inhibitor, partial curve, poor fit] | – |
| O=C(NCCCN1CCCC1=O)c1ccc2c(c1)OCO2 | inactive | – |
| Cc1onc(-c2ccccc2)c1C(=O)NCC(=O)Nc1cc(Cl)ccc1Cl | inconclusive: 35.5 µM [inhibitor, single point] | – |
| Cc1ccc(OCCSc2nc3ccccc3n2CC(=O)N2CCCCC2)cc1C | inconclusive: 20 µM [inhibitor, single point] | – |
| CC(=O)c1cccc(Nc2cc(C)nc3nc(-c4ccccc4C)nn23)c1 | inactive | – |
| CC(C)CCNC(=O)CN(C(=O)Cn1nnc(-c2ccc(F)cc2)n1)C1CCCC1 | inconclusive: 29.1 µM [inhibitor, single point] | – |
| COc1ccc(-c2cnnn2-c2ccc(NC(=O)c3ccc(S(=O)(=O)N4CCCCC4)cc3)cc2)cc1OC | inconclusive: 7.31 µM [inhibitor, full curve, poor fit] | – |
| Cc1ccc(C(=O)N/C(=C\c2ccccc2)C(=O)NCC2CCCO2)cc1 (configuration not stated) | inactive | – |
| Cc1cc2oc(C(=O)N(Cc3ccc(N(C)C)cc3)CC3CCCO3)c(C)c2cc1C (configuration not stated) | inconclusive: 10 µM [inhibitor, partial curve, poor fit] | – |
| O=C(CCCCn1c(=O)c2ccccc2n(Cc2ccccc2F)c1=O)NCc1ccc2c(c1)OCO2 | inactive | – |
| CCOc1cc(/C=N/O)ccc1OCc1ccc(F)cc1 | inconclusive: 0.178 µM [inhibitor, single point] | – |
| O=S(=O)(c1cccc2nsnc12)N1CCN(Cc2ccccc2)CC1 | inactive | – |
| COc1ccccc1N(CC(=O)Nc1cc(C)on1)S(=O)(=O)c1ccc(Cl)cc1 | inconclusive: 12.6 µM [inhibitor, single point] | – |
| Cc1cccc(C)c1NC(=O)COC(=O)CSc1nnc(N)s1 | inconclusive: 0.562 µM [activator, full curve, poor fit] | – |
| COc1ccc(C2N(Cc3ccccc3)CC(=O)N2/N=C(\C)c2ccccc2)cc1 (configuration not stated) | inactive | – |
| Cc1sc(NC(=O)c2ccco2)c(CN2CCN(c3ccccn3)CC2)c1C | inconclusive: 13 µM [inhibitor, partial curve] | – |
| N#Cc1ccc(N2CCc3ccccc3C2)c([N+](=O)[O-])c1 | inconclusive: 3.55 µM [activator, partial curve, poor fit] | – |
| CCN(CCCNC(=O)CCCN1C(=O)COc2ccc(C)cc21)c1cccc(C)c1 | inconclusive: 13 µM [inhibitor, partial curve, poor fit] | – |
| COC(=O)/C=c1\s/c(=C(/C#N)C(=O)N2CCOCC2)n(-c2ccccc2)c1=O | inactive | – |
| O=C(NCCN1CCOCC1)C1CCC(CNS(=O)(=O)c2ccc(Cl)cc2)CC1 (configuration not stated) | inactive | – |

| SMILES | Potency | activity change, negative = inhibition |
| --- | --- | --- |
| CN1C2C=C(N(CCc3c[nH]c4ccccc34)C(=O)c3ccc(Cl)cc3)CC1CC2 (configuration not stated) | inconclusive: 14.6 µM [inhibitor, partial curve, poor fit] | – |
| COc1cc(C(=O)O)cc(NC(=O)c2cccs2)c1OC | inactive | – |
| CCOC(=O)C/C(C)=N/NC(=O)Nc1ccccc1 | inactive | – |
| CC1(C)CC(=O)C(C2(O)C(=O)Nc3ccccc32)CO1 (configuration not stated) | inconclusive: 0.562 µM [activator, full curve, poor fit] | – |
| Cc1cc(C)c2c(N)c(C(=O)Nc3ccccc3Cl)sc2n1 | inconclusive: 6.31 µM [inhibitor, single point] | – |
| COc1ccc(NC(=S)Nc2cccc(Cl)c2)cc1OC | inactive | – |
| CCOC(=O)C1(C)C=C(Nc2ccc(O)cc2)C(=O)N1c1ccc(O)cc1 (configuration not stated) | inconclusive: 14.1 µM [inhibitor, single point] | – |
| Cc1ccc(-c2cc(C(=O)Nc3c(C)n(C)n(-c4ccccc4)c3=O)c3ccccc3n2)cc1 | inconclusive: 35.5 µM [inhibitor, single point] | – |
| O=C(O)[C@H](Cc1ccccc1)N1C(=O)c2ccncc2C1=O | inactive | – |
| COc1ccc(C(=O)OCC(=O)c2ccc(Br)s2)c(OC)c1 | inactive | – |
| COc1cccc(CN2CC(C(=O)NCCSc3nnnn3C)CCC2=O)c1 (configuration not stated) | inactive | – |
| COC1=C(C(=O)c2ccccc2)C(=O)[C@@]2(CC=C(C)C)C[C@@H]([S+](=O)([O-])c3ccccc3)C(C)(C)[C@@]1(CC=C(C)C)C2=O | inactive | – |
| Cc1ccc(NCc2n[nH]c(=S)n2-c2cccc(Cl)c2)cc1 | inactive | – |
| Cn1c2ccccc2c2c(C(=O)NCC3CCCO3)cn(C3CCCC3)c(=O)c21 (configuration not stated) | inactive | – |
| COc1ccc(CN2CCN(c3ncnc4sc5c(c34)CCCC5)CC2)cc1F | inactive | – |
| Cc1csc(NC(=O)C(NS(=O)(=O)c2ccc(Br)s2)c2ccccc2)n1 (configuration not stated) | inconclusive: 35.5 µM [inhibitor, single point] | – |
| O=C(O)CSC1CC(=O)N(c2ccc(Cl)cc2)C1=O (configuration not stated) | inconclusive: 16.4 µM [activator, partial curve, poor fit] | – |
| CCN(CC)CCn1c2c(c(SCC(=O)Nc3ccc(C(C)C)cc3)nc1=O)CCC2 | inconclusive: 25.1 µM [inhibitor, partial curve, poor fit] | – |
| Cc1ccc(CNC(=O)C(=O)NCC2OCCN2S(=O)(=O)c2ccc(Br)cc2)cc1 (configuration not stated) | inconclusive: 14.1 µM [inhibitor, partial curve, poor fit] | – |
| CCOC(=O)C1(Cc2ccccc2C)CCCN(C(=O)c2ccc(CSC)o2)C1 (configuration not stated) | inconclusive: 35.5 µM [inhibitor, single point] | – |
| COc1ccc(N(CC(=O)NCc2ccccc2)C(=O)CCC(=O)Nc2cc(C)ccn2)c(OC)c1 | inconclusive: 35.5 µM [inhibitor, single point] | – |
